In PubChem BioAssay AID2685 (National Center for Advancing Translational Sciences (NCATS), 2010):
This is one part of the list. These are further read-outs of the screen, such as a control signal, another cell line or another target. No call is given for them. Most of these compounds were active or inconclusive in the main read-out, so they are no random draw. Words in brackets tell the shape of the fitted curve; partial curves, single points and poor fits give uncertain potencies.

Experiment: qHTS Assay for Lipid Storage Modulators in Drosophila S3 Cells;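 on cell number change: cells counted by Cell Tracker Red CMTPX staining in the red channel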
Conditions: BODIPY lipid droplet fluorescence, 18-24 h; for cell number change: measured here: cell count max response, cells fed with added oleic acid
Procedure, shortened: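 Drosophila S3 cells got compounds at several concentrations plus oleic acid (400 uM solution). Laser-scanning cytometry with 488 nm excitation read lipid droplets at 500-530 nm and cells at 575-640 nm. Percent activity was relative to 20 uM Triacsin C.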

[1] = measured here: lipid fluorescence (Fed channel) AC50, cells fed with added oleic acid
[2] = measured here: cell number channel AC50, cells fed with added oleic acid

O=C(CNS(=O)(=O)c1ccccc1)N/N=C/c1ccc(O)cc1
AC50 [1]: 6.51 µM [rising, partial curve, poor fit]

Cc1nn(Cc2ccc(Cl)c(Cl)c2)c(C)c1NC(=O)c1cn(-c2ccccc2)nc1-c1ccccc1
cell number change: 41.4% | AC50 [2]: 0.366 µM [rising, full curve] | AC50 [1]: 7.31 µM [rising, partial curve]

COc1ccc(CCNC(=O)c2ccc(N(C)S(=O)(=O)c3ccc(C)cc3)cc2)cc1
AC50 [2]: 1.3 µM [rising, full curve, poor fit]

CCOC(=O)CC(NC(=O)c1ccc(C)cc1)c1ccc(OC)cc1 (stereo unspecified)
cell number change: 21.6% | AC50 [2]: 0.00517 µM [rising, full curve, poor fit]

O=C(OCc1c(F)cccc1Cl)c1cnc(Cl)c(Cl)c1
cell number change: 53.8% | AC50 [2]: 14.6 µM [rising, partial curve, poor fit] | AC50 [1]: 6.51 µM [rising, single point]

O=S(=O)(N1CCCCC1)n1c(Cc2ccccc2)nc2ccccc21
AC50 [1]: 0.366 µM [rising, single point]

Cc1cc(C)cc(NC(=O)CC2NCCNC2=O)c1 (stereo unspecified)
cell number change: 10.3% | AC50 [1]: 0.651 µM [falling, single point]

CC(C)Cn1c(SCC(=O)NCCCN2CCCC2=O)nc2ccccc21
AC50 [2]: 0.366 µM [rising, single point]

C=CCN=C(C)C1=C(O)CCC1=O
cell number change: -173% | AC50 [2]: 29.1 µM [falling, single point]

C/C=C(/C)C(=O)Nc1cccc(C2=NOC3(C2)C[C@@H](C(N)=O)N(C(=O)CC(c2ccccc2)c2ccccc2)C3)c1 (stereo partly specified)
AC50 [1]: 3.26 µM [rising, single point]

CC(C)(C)C(=O)Nc1cc(NC(=O)C(C)(C)C)cc(C(=O)Nc2cc(C(=O)O)cc(C(=O)O)c2)c1
cell number change: -1.69% | AC50 [1]: 29.1 µM [rising, single point]

O=C(NCCC1=CCCCC1)c1ccc(=O)oc1
cell number change: -0.34% | AC50 [1]: 0.00411 µM [falling, full curve, poor fit]

Cc1nc(C(=O)Nc2ccc(Cl)cc2Cl)nn1-c1cc(OC(C)C)c(Cl)cc1Cl
cell number change: 6.9%

CC(C)COCc1ccc(O)c2ncccc12
cell number change: -10.3% | AC50 [1]: 0.116 µM [falling, full curve, poor fit]

COc1cccc(NC(=O)CN(C)C(=O)c2ccc(-c3ccc(Cl)cc3)o2)c1
AC50 [1]: 3.66 µM [rising, partial curve]

O=C(CSc1ncn[nH]1)OCN1C(=O)c2ccccc2C1=O
cell number change: 1.94% | AC50 [1]: 1.84 µM [falling, partial curve]

CCN(CC)S(=O)(=O)c1cc(NC(=O)C(C)N2CCN(Cc3ccc4c(c3)OCO4)CC2)ccc1C (stereo unspecified)
cell number change: 30.6% | AC50 [2]: 20.6 µM [rising, single point] | AC50 [1]: 18.4 µM [rising, partial curve]

Cc1c(Br)c(C(F)(F)F)nn1CC(=O)N1CCCC1
cell number change: -30.7% | AC50 [2]: 5.17 µM [falling, full curve, poor fit] | AC50 [1]: 0.731 µM [falling, full curve, poor fit]

Cn1c(NC(=O)c2cccs2)cc(=O)n(C)c1=O
cell number change: -16.5% | AC50 [2]: 0.651 µM [falling, full curve, poor fit]

O=C(NNC(=O)C1CC(=O)N(Cc2ccccc2)C1)c1ccc(F)cc1 (stereo unspecified)
cell number change: -11% | AC50 [2]: 0.00411 µM [falling, full curve, poor fit]

CCC(C)Nc1nc(CN2CCOCC2)nc2sc3c(c12)CCC3 (stereo unspecified)
cell number change: 92.9%

O=C(CCc1nc2ccccc2c(=O)[nH]1)Nc1cccc(S(=O)(=O)N2CCCCC2)c1
cell number change: -11.6% | AC50 [1]: 1.64 µM [falling, single point]

CCOc1ccc(OCC)c(NC(=O)C2CCN(S(=O)(=O)c3cccc4nonc34)CC2)c1
cell number change: -65.7% | AC50 [2]: 18.4 µM [falling, single point] | AC50 [1]: 14.6 µM [falling, partial curve]

c1ccc(-c2csc(Nc3ccc4c(c3)OCCO4)n2)cc1
cell number change: -11.4% | AC50 [1]: 0.461 µM [rising, single point]

COc1cc(OC)cc(C(=O)NNC(=S)NC(=O)c2cccnc2)c1
cell number change: -5.24%

O=[N+]([O-])c1ccc(Cl)c(S(=O)(=O)Nc2ccc(-c3ccc(N4CCOCC4)nn3)cc2)c1
cell number change: 76.4% | AC50 [2]: 25.9 µM [rising, single point]

Cn1c(=O)c2c(c3ccccc31)OC(C)(C)CC2
cell number change: 1.17% | AC50 [2]: 0.731 µM [rising, single point] | AC50 [1]: 0.58 µM [rising, partial curve, poor fit]

Cc1cc(=O)oc2cc(OCC(=O)Nc3c(Cl)cccc3C(F)(F)F)ccc12
cell number change: -9.83%

COC(=O)C1=C(C)Nc2nnnn2C1c1cc(OC)ccc1OC (stereo unspecified)
cell number change: 3.49% | AC50 [1]: 14.6 µM [rising, single point]

COc1ccc(S(=O)(=O)N[C@@H](C)C(=O)OCC(=O)Nc2cc3oc4ccccc4c3cc2OC)cc1
cell number change: 20.4% | AC50 [1]: 2.59 µM [rising, single point]

COC(=O)Cc1c(O)ccn(CCc2c[nH]c3ccccc23)c1=O
cell number change: -41.1% | AC50 [2]: 7.31 µM [falling, single point] | AC50 [1]: 6.51 µM [falling, single point]

Cc1cc(C)n2nc(C(=O)N/N=C/C=C/c3ccccc3)nc2n1
cell number change: -12.7% | AC50 [1]: 16.4 µM [falling, single point]

C=CCn1c(=O)c2c(nc3n2CCCN3Cc2ccccc2)n(C)c1=O
cell number change: -0.917% | AC50 [1]: 0.58 µM [rising, single point]

NS(=O)(=O)c1ccc(CCNC(=O)c2ccc(OCC3CCCO3)cc2)cc1 (stereo unspecified)
cell number change: 24.8% | AC50 [1]: 0.116 µM [rising, full curve, poor fit]

COc1ccccc1NC(=O)C1CCCN(S(=O)(=O)c2ccc3[nH]c(=O)ccc3c2)C1 (stereo unspecified)
cell number change: 23.1% | AC50 [1]: 29.1 µM [rising, single point]

COc1ccc(/C=C/C(=O)OC(C)CN2CCCCC2)cc1 (stereo unspecified)
cell number change: 24.9% | AC50 [1]: 20.6 µM [rising, single point]

CC(C)(C)C(=O)Nc1cccc(-c2nnc(-c3cccc(NC(=O)C(C)(C)C)c3)o2)c1
cell number change: 23.5% | AC50 [1]: 4.61 µM [rising, full curve]
